Reference: the supplement of paper PMC10849652
The other results are listed elsewhere or left out.

Amino acid sequences for entries named in this document (tags omitted). A change or cut given only in a name is not applied to a line headed by its entry.
UniProt Q9Y2M5: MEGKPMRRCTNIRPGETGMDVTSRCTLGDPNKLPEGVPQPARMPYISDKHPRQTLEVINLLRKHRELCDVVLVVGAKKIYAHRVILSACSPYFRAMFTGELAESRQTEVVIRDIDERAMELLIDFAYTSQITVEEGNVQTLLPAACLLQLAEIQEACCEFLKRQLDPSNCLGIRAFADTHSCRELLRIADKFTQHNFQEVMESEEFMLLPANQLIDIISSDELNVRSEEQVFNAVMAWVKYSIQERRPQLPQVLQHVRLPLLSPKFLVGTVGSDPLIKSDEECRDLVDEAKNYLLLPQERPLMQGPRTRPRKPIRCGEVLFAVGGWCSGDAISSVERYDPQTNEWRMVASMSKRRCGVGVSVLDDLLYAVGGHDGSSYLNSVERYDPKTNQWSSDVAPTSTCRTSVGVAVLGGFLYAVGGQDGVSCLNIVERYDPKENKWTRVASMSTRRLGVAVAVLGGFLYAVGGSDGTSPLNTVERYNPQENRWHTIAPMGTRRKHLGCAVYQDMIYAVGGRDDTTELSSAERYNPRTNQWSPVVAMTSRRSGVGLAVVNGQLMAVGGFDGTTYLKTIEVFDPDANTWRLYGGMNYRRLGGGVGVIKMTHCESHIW
UniProt Q6PID8: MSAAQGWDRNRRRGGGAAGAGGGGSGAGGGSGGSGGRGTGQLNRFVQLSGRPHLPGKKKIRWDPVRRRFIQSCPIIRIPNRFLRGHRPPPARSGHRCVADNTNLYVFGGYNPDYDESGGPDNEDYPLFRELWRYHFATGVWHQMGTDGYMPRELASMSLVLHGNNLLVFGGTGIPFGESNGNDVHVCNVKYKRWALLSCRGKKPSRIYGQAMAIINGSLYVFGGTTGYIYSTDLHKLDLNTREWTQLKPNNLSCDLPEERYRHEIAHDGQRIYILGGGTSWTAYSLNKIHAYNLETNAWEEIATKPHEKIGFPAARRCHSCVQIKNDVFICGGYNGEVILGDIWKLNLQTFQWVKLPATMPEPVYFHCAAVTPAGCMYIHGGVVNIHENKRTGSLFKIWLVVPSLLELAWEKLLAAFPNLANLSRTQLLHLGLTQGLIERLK
UniProt Q9BW19: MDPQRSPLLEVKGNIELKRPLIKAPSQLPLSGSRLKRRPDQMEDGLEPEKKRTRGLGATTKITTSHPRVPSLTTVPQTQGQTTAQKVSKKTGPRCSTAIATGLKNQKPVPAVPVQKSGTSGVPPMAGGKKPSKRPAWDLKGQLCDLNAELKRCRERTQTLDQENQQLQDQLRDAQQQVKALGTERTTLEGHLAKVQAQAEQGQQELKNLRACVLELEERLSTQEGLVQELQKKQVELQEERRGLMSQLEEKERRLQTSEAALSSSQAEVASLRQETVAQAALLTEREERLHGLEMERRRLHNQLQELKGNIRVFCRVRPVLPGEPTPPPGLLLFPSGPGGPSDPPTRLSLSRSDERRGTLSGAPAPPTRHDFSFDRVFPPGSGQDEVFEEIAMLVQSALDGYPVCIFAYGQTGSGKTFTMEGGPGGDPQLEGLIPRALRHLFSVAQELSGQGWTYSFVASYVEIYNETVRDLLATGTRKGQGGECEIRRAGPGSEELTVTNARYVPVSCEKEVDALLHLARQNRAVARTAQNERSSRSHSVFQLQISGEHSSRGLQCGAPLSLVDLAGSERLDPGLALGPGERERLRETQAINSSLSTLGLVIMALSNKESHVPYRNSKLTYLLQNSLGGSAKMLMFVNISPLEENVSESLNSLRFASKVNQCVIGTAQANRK
UniProt O60870: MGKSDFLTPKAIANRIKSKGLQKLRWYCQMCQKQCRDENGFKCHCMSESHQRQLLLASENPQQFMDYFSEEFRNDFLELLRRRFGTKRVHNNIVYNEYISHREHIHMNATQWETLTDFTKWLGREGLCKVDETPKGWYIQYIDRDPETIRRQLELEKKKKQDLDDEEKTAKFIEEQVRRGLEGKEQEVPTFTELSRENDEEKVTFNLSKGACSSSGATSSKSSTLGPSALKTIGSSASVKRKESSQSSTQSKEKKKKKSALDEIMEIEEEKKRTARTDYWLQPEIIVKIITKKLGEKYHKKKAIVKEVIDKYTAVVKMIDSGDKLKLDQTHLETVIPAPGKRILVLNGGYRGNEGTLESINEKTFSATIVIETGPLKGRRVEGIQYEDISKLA
UniProt Q8WVZ9: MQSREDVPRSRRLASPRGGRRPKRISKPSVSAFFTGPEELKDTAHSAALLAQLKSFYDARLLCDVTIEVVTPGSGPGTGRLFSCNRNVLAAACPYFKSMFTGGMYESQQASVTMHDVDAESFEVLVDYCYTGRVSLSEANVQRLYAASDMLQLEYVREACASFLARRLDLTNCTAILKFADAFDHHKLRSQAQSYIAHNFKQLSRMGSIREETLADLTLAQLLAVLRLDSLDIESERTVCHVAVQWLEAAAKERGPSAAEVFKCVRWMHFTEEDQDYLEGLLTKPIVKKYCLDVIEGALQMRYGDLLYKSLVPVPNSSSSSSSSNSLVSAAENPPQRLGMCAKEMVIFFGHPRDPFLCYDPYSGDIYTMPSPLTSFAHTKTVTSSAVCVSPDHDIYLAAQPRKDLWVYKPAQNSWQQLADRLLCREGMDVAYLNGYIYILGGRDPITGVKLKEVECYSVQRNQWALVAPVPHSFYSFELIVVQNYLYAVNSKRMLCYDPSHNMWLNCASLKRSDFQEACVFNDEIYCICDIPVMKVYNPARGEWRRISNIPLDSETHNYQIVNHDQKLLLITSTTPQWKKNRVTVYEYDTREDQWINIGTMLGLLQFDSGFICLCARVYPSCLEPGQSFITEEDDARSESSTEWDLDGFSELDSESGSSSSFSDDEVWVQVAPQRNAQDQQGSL
UniProt Q15053: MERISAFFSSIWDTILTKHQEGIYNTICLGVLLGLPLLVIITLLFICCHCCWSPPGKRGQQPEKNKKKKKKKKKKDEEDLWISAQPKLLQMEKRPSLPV
UniProt Q719H9: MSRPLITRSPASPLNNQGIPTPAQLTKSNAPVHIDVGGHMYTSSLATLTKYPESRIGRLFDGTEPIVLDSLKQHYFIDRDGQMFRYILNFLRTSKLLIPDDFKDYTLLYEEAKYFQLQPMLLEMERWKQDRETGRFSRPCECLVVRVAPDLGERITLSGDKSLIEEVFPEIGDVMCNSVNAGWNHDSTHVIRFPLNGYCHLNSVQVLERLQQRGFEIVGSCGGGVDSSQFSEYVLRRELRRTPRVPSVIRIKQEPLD
UniProt O75037: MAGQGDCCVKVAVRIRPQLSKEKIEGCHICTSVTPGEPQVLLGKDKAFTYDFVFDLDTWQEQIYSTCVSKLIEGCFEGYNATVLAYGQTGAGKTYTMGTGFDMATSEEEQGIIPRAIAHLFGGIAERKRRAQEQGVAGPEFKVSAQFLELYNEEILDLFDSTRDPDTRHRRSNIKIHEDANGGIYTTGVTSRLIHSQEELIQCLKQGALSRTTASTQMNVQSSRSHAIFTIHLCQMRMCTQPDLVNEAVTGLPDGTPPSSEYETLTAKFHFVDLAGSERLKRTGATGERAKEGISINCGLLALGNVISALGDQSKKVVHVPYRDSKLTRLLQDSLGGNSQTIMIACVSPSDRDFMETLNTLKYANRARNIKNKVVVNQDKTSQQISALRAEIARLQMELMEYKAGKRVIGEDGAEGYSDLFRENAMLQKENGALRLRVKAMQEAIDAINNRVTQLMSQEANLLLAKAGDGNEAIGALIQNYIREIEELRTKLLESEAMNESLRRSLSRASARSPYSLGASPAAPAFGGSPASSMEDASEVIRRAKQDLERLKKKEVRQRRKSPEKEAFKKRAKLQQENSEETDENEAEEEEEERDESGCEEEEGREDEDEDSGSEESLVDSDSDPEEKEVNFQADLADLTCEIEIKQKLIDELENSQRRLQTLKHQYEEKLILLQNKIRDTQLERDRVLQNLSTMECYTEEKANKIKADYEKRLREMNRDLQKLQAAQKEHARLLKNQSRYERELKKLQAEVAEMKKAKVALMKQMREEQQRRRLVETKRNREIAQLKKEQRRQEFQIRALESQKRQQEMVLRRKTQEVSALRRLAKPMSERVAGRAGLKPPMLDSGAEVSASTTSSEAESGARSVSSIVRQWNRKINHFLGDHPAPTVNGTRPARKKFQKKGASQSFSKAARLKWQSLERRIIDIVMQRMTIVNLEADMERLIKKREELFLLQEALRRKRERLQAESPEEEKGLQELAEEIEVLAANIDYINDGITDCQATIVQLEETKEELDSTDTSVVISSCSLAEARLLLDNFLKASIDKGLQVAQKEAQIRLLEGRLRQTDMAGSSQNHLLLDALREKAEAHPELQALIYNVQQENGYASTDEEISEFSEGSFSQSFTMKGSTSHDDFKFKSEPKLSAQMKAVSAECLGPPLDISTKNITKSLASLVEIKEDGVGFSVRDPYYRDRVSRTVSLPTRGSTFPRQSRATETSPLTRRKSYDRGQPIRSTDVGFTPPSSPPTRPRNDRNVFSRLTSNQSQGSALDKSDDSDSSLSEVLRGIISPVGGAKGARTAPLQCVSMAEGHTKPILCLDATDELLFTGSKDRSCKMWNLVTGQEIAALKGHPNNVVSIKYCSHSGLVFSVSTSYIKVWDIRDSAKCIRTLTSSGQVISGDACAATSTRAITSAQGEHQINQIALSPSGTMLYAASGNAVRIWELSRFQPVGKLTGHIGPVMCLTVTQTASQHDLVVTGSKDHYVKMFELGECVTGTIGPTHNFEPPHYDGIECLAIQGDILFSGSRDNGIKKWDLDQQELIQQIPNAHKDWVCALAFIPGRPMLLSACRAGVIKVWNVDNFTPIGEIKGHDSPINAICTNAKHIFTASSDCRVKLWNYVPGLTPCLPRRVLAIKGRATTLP
UniProt Q9Y2U9: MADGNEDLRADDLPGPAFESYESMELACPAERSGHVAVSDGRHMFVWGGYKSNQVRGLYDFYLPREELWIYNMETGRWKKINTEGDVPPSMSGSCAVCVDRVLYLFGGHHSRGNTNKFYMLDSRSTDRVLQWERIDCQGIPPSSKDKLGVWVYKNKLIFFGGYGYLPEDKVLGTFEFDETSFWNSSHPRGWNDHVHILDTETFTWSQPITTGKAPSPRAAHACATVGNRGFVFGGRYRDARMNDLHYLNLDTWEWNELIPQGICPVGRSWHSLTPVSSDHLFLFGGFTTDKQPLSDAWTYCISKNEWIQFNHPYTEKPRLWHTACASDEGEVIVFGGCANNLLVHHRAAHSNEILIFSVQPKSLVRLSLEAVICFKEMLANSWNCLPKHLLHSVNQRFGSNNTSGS
UniProt Q8N4N3: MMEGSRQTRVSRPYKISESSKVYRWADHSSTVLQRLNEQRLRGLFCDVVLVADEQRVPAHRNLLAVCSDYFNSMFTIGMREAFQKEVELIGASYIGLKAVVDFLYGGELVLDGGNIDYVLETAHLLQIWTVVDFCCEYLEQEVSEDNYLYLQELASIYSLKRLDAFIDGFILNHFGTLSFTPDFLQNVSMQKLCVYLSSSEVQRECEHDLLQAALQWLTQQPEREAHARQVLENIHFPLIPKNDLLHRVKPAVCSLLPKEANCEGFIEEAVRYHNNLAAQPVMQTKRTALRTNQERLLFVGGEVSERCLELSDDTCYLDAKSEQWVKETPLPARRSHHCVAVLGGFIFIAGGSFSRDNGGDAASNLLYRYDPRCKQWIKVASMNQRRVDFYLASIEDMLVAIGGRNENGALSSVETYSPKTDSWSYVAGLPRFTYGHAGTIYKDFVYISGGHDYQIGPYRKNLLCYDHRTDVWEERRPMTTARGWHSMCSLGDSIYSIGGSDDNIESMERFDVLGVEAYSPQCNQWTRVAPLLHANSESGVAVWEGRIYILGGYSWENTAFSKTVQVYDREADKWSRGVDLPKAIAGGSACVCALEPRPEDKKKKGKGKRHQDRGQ
UniProt Q96S16: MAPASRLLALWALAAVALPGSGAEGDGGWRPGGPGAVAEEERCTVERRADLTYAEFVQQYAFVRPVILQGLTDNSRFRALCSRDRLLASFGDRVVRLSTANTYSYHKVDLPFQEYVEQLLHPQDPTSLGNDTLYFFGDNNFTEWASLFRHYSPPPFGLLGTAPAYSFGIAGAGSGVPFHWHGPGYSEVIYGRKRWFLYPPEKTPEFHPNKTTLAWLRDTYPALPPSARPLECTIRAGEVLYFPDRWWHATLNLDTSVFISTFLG
UniProt Q8NAX2: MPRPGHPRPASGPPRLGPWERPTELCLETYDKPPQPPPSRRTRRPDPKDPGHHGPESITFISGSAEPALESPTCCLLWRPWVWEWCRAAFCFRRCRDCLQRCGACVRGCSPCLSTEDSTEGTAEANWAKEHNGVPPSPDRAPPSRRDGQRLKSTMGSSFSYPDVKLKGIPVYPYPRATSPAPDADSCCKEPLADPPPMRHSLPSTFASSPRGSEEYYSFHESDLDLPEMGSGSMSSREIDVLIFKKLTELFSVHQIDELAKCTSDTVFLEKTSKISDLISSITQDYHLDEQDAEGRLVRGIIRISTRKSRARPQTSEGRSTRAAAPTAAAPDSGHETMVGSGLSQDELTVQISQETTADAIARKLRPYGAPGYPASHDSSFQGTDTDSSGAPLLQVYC

Compound: Cc1ccc(NC(=O)c2ccc(CN3CC[C@H](N(C)C)C3)c(C(F)(F)F)c2)cc1Nc1nccc(-c2cncnc2)n1 [bafetinib]
Assay: log2 fold change, soluble protein after heating vs DMSO (PISA); higher = thermal stabilisation; K562 cells, 10 uM, 30 min; active = over 0.2 and 3.5 SD of the protein, either way, in both replicates (recomputed)
How it was run: (§1)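 Values are thermal stability changes relative to control samples and are taken from duplicates. They are stated as log2 fold changes. Before quantification by TMTpro 16plex LC-MS/MS with equalised channel sums, K562 cells at 2×10^6 cells/mL were treated with 10 μM compound for 30 min, heated in aliquots for 3 min across 48°C-58°C, pooled, extracted in PBS with 0.5% NP-40 at 4°C, and centrifuged at 21,000xg for 90 min to give the soluble supernatant.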

log2 fold change, inactive:
KATNAL1 (UniProt Q9BW62) -0.047
KIF1C (UniProt O43896) -0.094
KIAA0754 (UniProt O94854) 0.129
KCNH2 (UniProt Q12809) 0
KLHL42 (UniProt Q9P2K6) -0.281
KIF14 (UniProt Q15058) -0.116

Compound: Cc1cccc(CC(=O)N2CCc3c2ccc(-c2cn(C)c4ncnc(N)c24)c3F)n1
Assay: as above
How it was run: as §1

log2 fold change, inactive:
KATNBL1 (UniProt Q9H079) -0.05
KLHL20 (UniProt Q9Y2M5) 0.169
ITSN1 (UniProt Q15811) -0.059
KLHDC10 (UniProt Q6PID8) 0.06
KIZ (UniProt Q2M2Z5) 0.268
KIFC1 (UniProt Q9BW19) 0.054
KMT5A (UniProt Q9NQR1) -0.218
KRR1 (UniProt Q13601) -0.028
KNL1 (UniProt Q8NG31) -0.072
KMT2A isoform 3 (UniProt Q03164) 0.01
KIN (UniProt O60870) -0.074
KIAA1109 (UniProt Q2LD37) 0.054
ITSN2 (UniProt Q9NZM3) -0.071
KDM3A (UniProt Q9Y4C1) -0.004
KRT10, A0A1B0GVI3 -0.018
KIF20B isoform 2 (UniProt Q96Q89) 0.033
KBTBD7 (UniProt Q8WVZ9) -0.075
KIF4A (UniProt O95239) 0.07
KSR2 (UniProt Q6VAB6) -0.024

Compound: Cc1cn(-c2cc(NC(=O)c3ccc(C)c(Nc4nccc(-c5cccnc5)n4)c3)cc(C(F)(F)F)c2)cn1 [nilotinib]
Assay: as above
How it was run: as §1

log2 fold change, inactive:
KIAA0040 (UniProt Q15053) 0.084
KLHL20 (UniProt Q9Y2M5) 0.125
KRT10, A0A1B0GVI3 -0.059
KCTD1 (UniProt Q719H9) 0.111
KIF21B (UniProt O75037) -0.019
KLHDC2 (UniProt Q9Y2U9) 0.02
KLHL36 (UniProt Q8N4N3) 0.125
KBTBD7 (UniProt Q8WVZ9) 0.023
JMJD8 (UniProt Q96S16) 0.065

Compound: Cc1nc(Nc2n[nH]c3c2CN(C(=O)N[C@H](CN(C)C)c2ccccc2)C3(C)C)c2sccc2n1
Assay: as above
How it was run: as §1

log2 fold change, inactive:
KIAA0040 (UniProt Q15053) -0.025
KLHL20 (UniProt Q9Y2M5) 0.054
KRT10, A0A1B0GVI3 -0.042
KCTD1 (UniProt Q719H9) -0.116
KIF21B (UniProt O75037) 0.127
KLHDC2 (UniProt Q9Y2U9) -0.254
KLHL36 (UniProt Q8N4N3) -0.218
KBTBD7 (UniProt Q8WVZ9) -0.065
JMJD8 (UniProt Q96S16) 0

Compound: Cc1nc(Nc2ncc(C(=O)Nc3c(C)cccc3Cl)s2)cc(N2CCN(CCO)CC2)n1 [dasatinib]
Assay: as above
How it was run: as §1

log2 fold change, inactive:
KATNBL1 (UniProt Q9H079) -0.102
KLHL20 (UniProt Q9Y2M5) 0.014
KATNAL1 (UniProt Q9BW62) 0.242
KIAA0754 (UniProt O94854) -0.226
KCNH2 (UniProt Q12809) -0.209
KDF1 (UniProt Q8NAX2) -0.147
JOSD1 (UniProt Q15040) -0.267
KLHL42 (UniProt Q9P2K6) -0.113
KNL1 (UniProt Q8NG31) -0.055
KMT2A isoform 3 (UniProt Q03164) -0.112
KMT2E (UniProt Q8IZD2) -0.075
KDM6A (UniProt O15550) -0.277
KIF16B isoform 2 (UniProt Q96L93) 0.19
KCTD1 (UniProt Q719H9) 0.113
KIF21B (UniProt O75037) 0.018
KBTBD7 (UniProt Q8WVZ9) -0.027
JMJD8 (UniProt Q96S16) -0.004
KIF4A (UniProt O95239) -0.012
KIF14 (UniProt Q15058) 0.097

Compound: Cc1ncc(-c2ccnc(Nc3ccc(S(C)(=O)=O)cc3)n2)n1C(C)C
Assay: as above
How it was run: as §1

log2 fold change, inactive:
KIAA0040 (UniProt Q15053) 0.015
KLHL20 (UniProt Q9Y2M5) -0.112
KRT10, A0A1B0GVI3 -0.037
KCTD1 (UniProt Q719H9) 0.048
KIF21B (UniProt O75037) -0.06
KLHDC2 (UniProt Q9Y2U9) -0.085
KLHL36 (UniProt Q8N4N3) 0.312
KBTBD7 (UniProt Q8WVZ9) -0.014
JMJD8 (UniProt Q96S16) 0.142
